Assay [1] deals with T1, Peroxisome proliferator-activated receptor alpha (Homo sapiens, UniProt Q07869).
T1 sequence (Q07869 whole entry): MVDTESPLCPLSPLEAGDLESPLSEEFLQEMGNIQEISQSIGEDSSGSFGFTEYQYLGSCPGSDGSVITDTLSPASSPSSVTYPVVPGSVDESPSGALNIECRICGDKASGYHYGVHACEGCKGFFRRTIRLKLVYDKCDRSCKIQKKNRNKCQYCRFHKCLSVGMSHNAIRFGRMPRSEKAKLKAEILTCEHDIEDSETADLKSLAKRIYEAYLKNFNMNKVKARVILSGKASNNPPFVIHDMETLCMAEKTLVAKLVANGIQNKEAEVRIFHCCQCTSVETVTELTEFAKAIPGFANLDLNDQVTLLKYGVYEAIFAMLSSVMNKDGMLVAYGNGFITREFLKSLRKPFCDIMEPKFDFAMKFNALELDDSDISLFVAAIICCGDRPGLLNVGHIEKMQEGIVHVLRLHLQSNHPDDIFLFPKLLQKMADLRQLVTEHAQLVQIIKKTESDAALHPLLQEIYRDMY
The format is functional.

For assay [2], the target named is T2, Peroxisome proliferator-activated receptor delta (Homo sapiens, UniProt Q03181).
T2 sequence (Q03181 whole entry): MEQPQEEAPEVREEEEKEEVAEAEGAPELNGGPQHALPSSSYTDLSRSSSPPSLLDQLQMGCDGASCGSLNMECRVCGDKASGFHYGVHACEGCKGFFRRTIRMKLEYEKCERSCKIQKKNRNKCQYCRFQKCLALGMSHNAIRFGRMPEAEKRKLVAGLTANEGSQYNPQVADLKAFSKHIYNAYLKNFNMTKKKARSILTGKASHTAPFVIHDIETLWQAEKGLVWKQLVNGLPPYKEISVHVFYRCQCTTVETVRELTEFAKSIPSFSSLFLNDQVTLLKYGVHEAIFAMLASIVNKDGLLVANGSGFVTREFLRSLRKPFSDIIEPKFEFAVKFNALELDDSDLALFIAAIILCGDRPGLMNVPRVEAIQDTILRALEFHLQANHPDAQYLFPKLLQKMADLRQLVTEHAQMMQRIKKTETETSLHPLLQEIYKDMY
The format is functional.

One may read the IC50 as the concentration that gives 50% inhibition. In the case of `CCc1ccc(O[C@H](C)CCOc2ccc(OC(C)(C)C(=O)O)cc2)c(C(=O)c2ccccc2)c1`, the values for the IC50 in assay [1] and in assay [2] were 1320 nM and 5 nM, respectively.

These data come from ChEMBL document CHEMBL2034870, “Activity landscape modeling of PPAR ligands with dual-activity difference maps” (Bioorg Med Chem, 2012).
